Reference: the supplement of paper PMC12823440, “Inhibitors supercharge kinase turnover through native proteolytic circuits” (Nature, 2025)
Counter-ions that a name gives are not always drawn. The list shows a part of the results. The calls rarely recur for the same compound in another form.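 Kinases, fused to nanoluciferase, were expressed in K562 cells; luminescence was measured every 4 h from 2 to 18 h as percent of control (DMSO = 100%, positive control = 0%). A time point is decreased if signal falls significantly (2 sigma). Hits were called by the authors by a rule that is not shown; the count of time points alone does not decide it.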

Amino acid sequences for entries named in this document (tags omitted). A change or cut given only in a name is not applied to a line headed by its entry.
UniProt P28482, whole entry: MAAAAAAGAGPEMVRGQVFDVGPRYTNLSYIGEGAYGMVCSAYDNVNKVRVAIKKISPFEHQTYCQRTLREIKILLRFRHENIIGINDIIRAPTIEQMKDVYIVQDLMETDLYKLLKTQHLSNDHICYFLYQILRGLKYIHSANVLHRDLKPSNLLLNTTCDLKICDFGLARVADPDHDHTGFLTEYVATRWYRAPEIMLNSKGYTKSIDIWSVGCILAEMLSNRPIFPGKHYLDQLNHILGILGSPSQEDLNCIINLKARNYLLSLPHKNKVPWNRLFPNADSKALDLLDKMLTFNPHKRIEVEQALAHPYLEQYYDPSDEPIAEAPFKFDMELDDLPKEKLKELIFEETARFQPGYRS
UniProt P31152, whole entry: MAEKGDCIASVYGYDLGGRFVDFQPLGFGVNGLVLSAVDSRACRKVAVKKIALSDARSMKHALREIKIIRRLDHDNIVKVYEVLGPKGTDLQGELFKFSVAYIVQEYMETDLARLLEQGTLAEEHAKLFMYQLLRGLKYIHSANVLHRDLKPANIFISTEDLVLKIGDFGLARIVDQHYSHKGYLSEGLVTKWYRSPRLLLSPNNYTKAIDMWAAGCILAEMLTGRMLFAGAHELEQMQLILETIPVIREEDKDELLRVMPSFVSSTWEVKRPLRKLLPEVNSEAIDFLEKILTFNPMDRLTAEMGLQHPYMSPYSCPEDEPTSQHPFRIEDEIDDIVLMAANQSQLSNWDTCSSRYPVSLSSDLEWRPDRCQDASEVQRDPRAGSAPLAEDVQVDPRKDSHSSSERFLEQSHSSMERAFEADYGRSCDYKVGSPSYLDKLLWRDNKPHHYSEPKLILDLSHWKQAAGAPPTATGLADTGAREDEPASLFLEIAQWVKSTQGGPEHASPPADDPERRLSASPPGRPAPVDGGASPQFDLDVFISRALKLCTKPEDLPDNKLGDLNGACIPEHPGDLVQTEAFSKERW
UniProt P49137, whole entry, looked up: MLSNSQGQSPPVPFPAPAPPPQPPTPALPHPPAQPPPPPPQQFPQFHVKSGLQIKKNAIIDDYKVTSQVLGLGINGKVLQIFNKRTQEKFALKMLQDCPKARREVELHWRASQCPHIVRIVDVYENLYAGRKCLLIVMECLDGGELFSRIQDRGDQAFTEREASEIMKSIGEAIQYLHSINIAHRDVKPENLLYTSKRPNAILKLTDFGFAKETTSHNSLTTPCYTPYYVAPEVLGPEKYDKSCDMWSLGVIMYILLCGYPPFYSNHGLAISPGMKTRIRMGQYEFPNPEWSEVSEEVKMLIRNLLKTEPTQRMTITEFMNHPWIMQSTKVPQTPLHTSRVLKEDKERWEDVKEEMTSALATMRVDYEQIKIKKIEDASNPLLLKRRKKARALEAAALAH
UniProt Q9BUB5: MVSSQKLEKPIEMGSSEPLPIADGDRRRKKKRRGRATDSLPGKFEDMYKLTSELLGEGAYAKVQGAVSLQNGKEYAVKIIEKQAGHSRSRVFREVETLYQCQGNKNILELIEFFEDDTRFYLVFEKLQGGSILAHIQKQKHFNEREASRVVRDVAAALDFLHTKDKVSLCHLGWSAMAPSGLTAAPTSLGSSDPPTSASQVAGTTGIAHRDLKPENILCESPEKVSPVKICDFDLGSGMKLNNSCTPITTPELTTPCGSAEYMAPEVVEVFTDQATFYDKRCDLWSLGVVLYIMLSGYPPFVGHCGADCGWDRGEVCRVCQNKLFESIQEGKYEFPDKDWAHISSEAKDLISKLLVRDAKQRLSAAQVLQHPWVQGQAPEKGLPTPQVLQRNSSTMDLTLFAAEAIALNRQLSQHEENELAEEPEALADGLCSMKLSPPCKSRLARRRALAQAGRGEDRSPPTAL
UniProt Q16620, whole entry, looked up: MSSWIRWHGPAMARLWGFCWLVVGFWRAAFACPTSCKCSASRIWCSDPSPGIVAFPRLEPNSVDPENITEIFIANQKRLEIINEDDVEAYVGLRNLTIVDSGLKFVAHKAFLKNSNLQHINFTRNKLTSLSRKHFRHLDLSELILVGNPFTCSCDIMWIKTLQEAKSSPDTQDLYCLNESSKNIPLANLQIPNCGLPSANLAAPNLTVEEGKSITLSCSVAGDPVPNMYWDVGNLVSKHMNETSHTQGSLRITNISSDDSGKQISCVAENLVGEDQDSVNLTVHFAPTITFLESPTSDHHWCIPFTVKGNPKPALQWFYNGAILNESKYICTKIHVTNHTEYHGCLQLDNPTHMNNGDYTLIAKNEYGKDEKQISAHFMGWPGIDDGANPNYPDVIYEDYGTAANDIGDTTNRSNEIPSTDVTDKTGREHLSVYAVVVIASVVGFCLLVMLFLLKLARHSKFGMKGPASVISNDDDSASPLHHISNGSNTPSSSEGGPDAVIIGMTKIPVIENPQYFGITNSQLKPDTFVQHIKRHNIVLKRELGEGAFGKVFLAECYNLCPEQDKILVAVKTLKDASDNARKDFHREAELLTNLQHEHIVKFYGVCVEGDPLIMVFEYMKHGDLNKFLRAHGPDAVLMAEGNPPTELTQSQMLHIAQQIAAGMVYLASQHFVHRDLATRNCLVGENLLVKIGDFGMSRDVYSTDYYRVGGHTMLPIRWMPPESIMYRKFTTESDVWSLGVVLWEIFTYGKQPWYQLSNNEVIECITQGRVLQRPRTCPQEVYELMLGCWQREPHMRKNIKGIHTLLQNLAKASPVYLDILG
UniProt Q16288, whole entry, looked up: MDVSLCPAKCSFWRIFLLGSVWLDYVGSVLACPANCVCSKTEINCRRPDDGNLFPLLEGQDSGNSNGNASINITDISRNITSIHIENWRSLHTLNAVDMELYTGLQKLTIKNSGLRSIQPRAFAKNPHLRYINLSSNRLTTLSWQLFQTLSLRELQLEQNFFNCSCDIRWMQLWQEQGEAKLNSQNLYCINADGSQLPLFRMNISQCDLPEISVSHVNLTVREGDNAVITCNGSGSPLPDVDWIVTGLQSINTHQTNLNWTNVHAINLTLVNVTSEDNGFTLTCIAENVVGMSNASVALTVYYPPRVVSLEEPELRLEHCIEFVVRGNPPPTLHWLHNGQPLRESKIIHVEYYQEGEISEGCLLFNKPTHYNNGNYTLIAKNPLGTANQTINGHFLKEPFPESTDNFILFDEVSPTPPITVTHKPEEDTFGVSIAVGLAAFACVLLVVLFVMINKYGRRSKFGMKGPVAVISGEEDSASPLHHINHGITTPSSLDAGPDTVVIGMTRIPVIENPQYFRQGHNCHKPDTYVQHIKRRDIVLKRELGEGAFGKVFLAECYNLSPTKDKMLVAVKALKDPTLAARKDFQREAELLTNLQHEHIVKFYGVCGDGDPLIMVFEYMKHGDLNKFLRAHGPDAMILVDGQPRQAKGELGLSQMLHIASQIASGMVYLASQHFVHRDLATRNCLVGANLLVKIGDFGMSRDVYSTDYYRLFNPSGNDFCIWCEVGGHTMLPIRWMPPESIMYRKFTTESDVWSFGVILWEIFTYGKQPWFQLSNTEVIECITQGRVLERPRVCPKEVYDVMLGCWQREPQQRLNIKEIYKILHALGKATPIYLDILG
UniProt O96013: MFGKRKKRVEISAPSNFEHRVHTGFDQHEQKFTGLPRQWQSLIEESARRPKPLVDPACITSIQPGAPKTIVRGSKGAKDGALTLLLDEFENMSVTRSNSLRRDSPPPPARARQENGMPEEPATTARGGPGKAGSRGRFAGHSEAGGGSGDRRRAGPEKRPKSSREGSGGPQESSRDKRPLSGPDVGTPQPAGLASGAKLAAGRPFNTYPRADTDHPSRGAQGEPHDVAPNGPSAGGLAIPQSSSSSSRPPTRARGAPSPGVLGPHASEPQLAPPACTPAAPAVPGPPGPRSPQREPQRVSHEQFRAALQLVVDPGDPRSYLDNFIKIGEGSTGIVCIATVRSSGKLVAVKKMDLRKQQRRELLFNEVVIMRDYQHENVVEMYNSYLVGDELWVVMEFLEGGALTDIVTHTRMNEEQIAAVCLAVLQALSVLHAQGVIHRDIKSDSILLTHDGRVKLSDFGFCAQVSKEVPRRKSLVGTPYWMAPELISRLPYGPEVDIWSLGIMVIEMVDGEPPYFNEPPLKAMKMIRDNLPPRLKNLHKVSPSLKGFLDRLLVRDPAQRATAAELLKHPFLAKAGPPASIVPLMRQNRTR
UniProt Q96KB5: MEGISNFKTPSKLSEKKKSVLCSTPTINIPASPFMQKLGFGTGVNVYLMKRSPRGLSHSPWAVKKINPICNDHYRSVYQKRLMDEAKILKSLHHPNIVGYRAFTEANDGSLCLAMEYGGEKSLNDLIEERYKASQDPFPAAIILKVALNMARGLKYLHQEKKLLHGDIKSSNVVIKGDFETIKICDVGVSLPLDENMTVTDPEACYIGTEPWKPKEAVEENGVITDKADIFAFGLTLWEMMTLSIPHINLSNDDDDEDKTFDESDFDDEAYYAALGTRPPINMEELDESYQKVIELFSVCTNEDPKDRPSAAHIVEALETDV
UniProt P09619, whole entry: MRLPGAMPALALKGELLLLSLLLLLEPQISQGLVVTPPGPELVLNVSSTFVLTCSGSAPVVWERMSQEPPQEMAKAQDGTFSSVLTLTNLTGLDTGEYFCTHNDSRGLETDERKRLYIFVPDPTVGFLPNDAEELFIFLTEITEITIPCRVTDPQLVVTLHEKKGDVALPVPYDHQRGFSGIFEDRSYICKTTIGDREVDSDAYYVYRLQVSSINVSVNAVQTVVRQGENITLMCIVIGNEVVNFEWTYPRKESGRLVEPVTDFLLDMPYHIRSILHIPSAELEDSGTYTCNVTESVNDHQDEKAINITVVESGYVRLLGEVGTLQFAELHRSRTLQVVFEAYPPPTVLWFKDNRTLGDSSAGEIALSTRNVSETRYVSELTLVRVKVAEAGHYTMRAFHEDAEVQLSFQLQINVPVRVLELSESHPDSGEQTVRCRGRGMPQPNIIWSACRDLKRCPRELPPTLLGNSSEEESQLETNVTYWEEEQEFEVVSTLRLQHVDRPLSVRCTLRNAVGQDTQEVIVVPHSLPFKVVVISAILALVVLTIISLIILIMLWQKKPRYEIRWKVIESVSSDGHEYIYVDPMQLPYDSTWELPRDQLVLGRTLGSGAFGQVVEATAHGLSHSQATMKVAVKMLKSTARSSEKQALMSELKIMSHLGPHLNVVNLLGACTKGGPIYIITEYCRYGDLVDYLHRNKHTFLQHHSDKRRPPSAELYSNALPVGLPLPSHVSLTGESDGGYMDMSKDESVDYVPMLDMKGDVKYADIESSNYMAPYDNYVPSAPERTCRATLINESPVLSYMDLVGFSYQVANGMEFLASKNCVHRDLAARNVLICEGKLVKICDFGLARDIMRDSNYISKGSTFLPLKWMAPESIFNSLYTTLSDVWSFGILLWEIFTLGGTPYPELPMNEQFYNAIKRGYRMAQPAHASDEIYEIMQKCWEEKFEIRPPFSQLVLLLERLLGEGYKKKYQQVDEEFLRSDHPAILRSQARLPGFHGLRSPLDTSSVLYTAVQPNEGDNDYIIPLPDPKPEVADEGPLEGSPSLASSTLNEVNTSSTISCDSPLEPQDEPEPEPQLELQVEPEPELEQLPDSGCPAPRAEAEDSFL
UniProt Q15118, whole entry, looked up: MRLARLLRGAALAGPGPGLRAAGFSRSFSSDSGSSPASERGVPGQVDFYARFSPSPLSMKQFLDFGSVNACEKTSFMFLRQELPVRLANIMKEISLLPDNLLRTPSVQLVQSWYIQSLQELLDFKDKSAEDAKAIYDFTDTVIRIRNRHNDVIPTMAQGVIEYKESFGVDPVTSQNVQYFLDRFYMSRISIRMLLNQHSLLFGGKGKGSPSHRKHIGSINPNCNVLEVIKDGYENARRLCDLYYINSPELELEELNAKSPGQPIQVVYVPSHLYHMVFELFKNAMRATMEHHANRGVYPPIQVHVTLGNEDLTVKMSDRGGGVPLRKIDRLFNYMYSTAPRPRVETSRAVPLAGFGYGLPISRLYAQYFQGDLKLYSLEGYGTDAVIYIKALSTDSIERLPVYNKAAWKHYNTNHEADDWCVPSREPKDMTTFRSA

Tests used:
Experiment in all cases: kinase-Nluc reporter destabilization hit call (1 = scored as downregulated) (binary); higher = compound decreases kinase abundance
Settings in all cases: K562; 2-18 h
MAPK1 = MAPK1 (UniProt P28482)
MAPK4 = MAPK4 (UniProt P31152)
MAPKAPK2 = MAPKAPK2 (UniProt P49137)
MKNK1 = MKNK1 (UniProt Q9BUB5)
NTRK2 = NTRK2 (UniProt Q16620)
NTRK3 = NTRK3 (UniProt Q16288)
PAK4 = PAK4 (UniProt O96013)
PBK = PBK (UniProt Q96KB5)
PDGFRB = PDGFRB (UniProt P09619)
PDK1 = PDK1 (UniProt Q15118)

Measured: kinase-Nluc reporter destabilization hit call

Cn1cnc(-c2cc3nccc(Oc4ccc(NC(=S)NC(=O)Cc5ccccc5)cc4F)c3s2)c1 [MGCD-265 analog] (10 µM)
inactive: MAPK1 = 0 | MAPK4 = 0 | MAPKAPK2 = 0 | MKNK1 = 0 | NTRK2 = 0 | NTRK3 = 0 | PAK4 = 0 | PBK 0 | PDGFRB 0 | PDK1 = 0

c1cn2cc(-c3ccc4cn[nH]c4c3)nc(Nc3ccc(N4CCOCC4)cc3)c2n1 [Entospletinib] (10 µM)
inactive: MAPK1 = 0 | MAPK4 = 0 | MAPKAPK2 = 0 | MKNK1 = 0 | NTRK2 = 0 | NTRK3 = 0 | PAK4 = 0 | PBK 0 | PDGFRB 0 | PDK1 = 0

Cn1cc(Nc2nccc(N3C[C@H]4CC[C@@H](C3)N4C(=O)[C@@H]3CC3(F)F)n2)cn1 (10 µM)
inactive: MAPK1 = 0 | MAPK4 = 0 | MAPKAPK2 = 0 | MKNK1 = 0 | NTRK2 = 0 | NTRK3 = 0 | PAK4 = 0 | PBK 0 | PDGFRB 0 | PDK1 = 0

Cn1cc(-c2ccc(CNc3cc(-c4cnc5cc(OCCCN6CCCC6)ccn45)ncn3)cc2)cn1 (10 µM)
inactive: MAPK1 = 0 | MAPK4 = 0 | MAPKAPK2 = 0 | MKNK1 = 0 | NTRK2 = 0 | NTRK3 = 0 | PAK4 = 0 | PBK 0 | PDGFRB 0 | PDK1 = 0

CC(=O)N1CCN(c2cc(-c3cc(C(F)(F)F)c4c(N)ncnn34)ccc2C#N)C(=O)C1(C)C (10 µM)
inactive: MAPK1 = 0 | MAPK4 = 0 | MAPKAPK2 = 0 | MKNK1 = 0 | NTRK2 = 0 | NTRK3 = 0 | PAK4 = 0 | PBK 0 | PDGFRB 0 | PDK1 = 0

N[C@H](Cc1c[nH]c2ccccc12)C(=O)N/N=C/c1ccc2nccnc2c1 [Rhosin (hydrochloride)] (10 µM)
inactive: MAPK1 = 0 | MAPK4 = 0 | MAPKAPK2 = 0 | MKNK1 = 0 | NTRK2 = 0 | NTRK3 = 0 | PAK4 = 0 | PBK 0 | PDGFRB 0 | PDK1 = 0

O=C(NCCCNC(=O)Nc1cccc(C2=NCCN2)c1)Nc1cccc(C2=NCCN2)c1 [p32 Inhibitor M36] (10 µM)
inactive: MAPK1 = 0 | MAPK4 = 0 | MAPKAPK2 = 0 | MKNK1 = 0 | NTRK2 = 0 | NTRK3 = 0 | PAK4 = 0 | PBK 0 | PDGFRB 0 | PDK1 = 0

CC(c1ccc(-c2cnc3c(-c4ccc(S(N)(=O)=O)c5ccccc45)cnn3c2)cc1)N1CCCC1 (stereo not given) (2.5 µM)
inactive: MAPK1 = 0 | MAPK4 = 0 | MAPKAPK2 = 0 | MKNK1 = 0 | NTRK2 = 0 | NTRK3 = 0 | PAK4 = 0 | PBK 0 | PDGFRB 0 | PDK1 = 0

Cc1cc(O)c(C(C)C)cc1N=O [Poloxime] (10 µM)
inactive: MAPK1 = 0 | MAPK4 = 0 | MAPKAPK2 = 0 | MKNK1 = 0 | NTRK2 = 0 | NTRK3 = 0 | PAK4 = 0 | PBK 0 | PDGFRB 0 | PDK1 = 0

CC(=NNC(=O)c1ccc(C)c(Br)c1)c1ccc(O)cc1O [mTOR inhibitor-1] (2.5 µM)
inactive: MAPK1 = 0 | MAPK4 = 0 | MAPKAPK2 = 0 | MKNK1 = 0 | NTRK2 = 0 | NTRK3 = 0 | PAK4 = 0 | PBK 0 | PDGFRB 0 | PDK1 = 0

Cc1cc(Nc2cc(Cl)nc(Oc3ccc([N+](=O)[O-])cc3)n2)n[nH]1 [Autophinib] (2.5 µM)
inactive: MAPK1 = 0 | MAPK4 = 0 | MAPKAPK2 = 0 | MKNK1 = 0 | NTRK2 = 0 | NTRK3 = 0 | PAK4 = 0 | PBK 0 | PDGFRB 0 | PDK1 = 0

OC(COc1ccc(C(F)(F)F)cc1)CN(Cc1ccccc1)Cc1ccccc1 (stereo not given) (2.5 µM)
inactive: MAPK1 = 0 | MAPK4 = 0 | MAPKAPK2 = 0 | MKNK1 = 0 | NTRK2 = 0 | NTRK3 = 0 | PAK4 = 0 | PBK 0 | PDGFRB 0 | PDK1 = 0

CNC(=O)c1ccc(-c2cnc3cnc(C(=O)N(C)c4ccc(Cl)cc4)cn23)cc1 (2.5 µM)
inactive: MAPK1 = 0 | MAPK4 = 0 | MAPKAPK2 = 0 | MKNK1 = 0 | NTRK2 = 0 | NTRK3 = 0 | PAK4 = 0 | PBK 0 | PDGFRB 0 | PDK1 = 0

O=C(CNC(=O)c1ccc(-c2ccccc2)cc1)NC1CCCc2ccccc21 (stereo not given) [TAO Kinase inhibitor 1] (10 µM)
inactive: MAPK1 = 0 | MAPK4 = 0 | MAPKAPK2 = 0 | MKNK1 = 0 | NTRK2 = 0 | NTRK3 = 0 | PAK4 = 0 | PBK 0 | PDGFRB 0 | PDK1 = 0

COc1cccc(-n2c(=O)[nH]c3cc(Cl)n(-c4ccc(-c5cccc(OC)c5O)cc4)c3c2=O)c1 (2.5 µM)
inactive: MAPK1 = 0 | MAPK4 = 0 | MAPKAPK2 = 0 | MKNK1 = 0 | NTRK2 = 0 | NTRK3 = 0 | PAK4 = 0 | PBK 0 | PDGFRB 0 | PDK1 = 0

O=C(Nc1cccnc1)c1cc(C(=O)c2c(F)cccc2Br)c[nH]1 (10 µM)
inactive: MAPK1 = 0 | MAPK4 = 0 | MAPKAPK2 = 0 | MKNK1 = 0 | NTRK2 = 0 | NTRK3 = 0 | PAK4 = 0 | PBK 0 | PDGFRB 0 | PDK1 = 0

COc1ccc(Cn2cc(C(=O)N=Nc3c(O)[nH]c4c(C)cccc34)nn2)cc1 [MARK4 inhibitor 1] (10 µM)
inactive: MAPK1 = 0 | MAPK4 = 0 | MAPKAPK2 = 0 | MKNK1 = 0 | NTRK2 = 0 | NTRK3 = 0 | PAK4 = 0 | PBK 0 | PDGFRB 0 | PDK1 = 0

CCn1c(C(=O)N(C2CC2)C2CC2)cc2c3c(ncn3C)c(Nc3cc(C)n(C)n3)nc21 (10 µM)
inactive: MAPK1 = 0 | MAPK4 = 0 | MAPKAPK2 = 0 | MKNK1 = 0 | NTRK2 = 0 | NTRK3 = 0 | PAK4 = 0 | PBK 0 | PDGFRB 0 | PDK1 = 0

CO[C@H]1C[C@@H]2CC[C@@H](C)[C@@](O)(O2)C(=O)C(=O)N2CCCC[C@H]2C(=O)O[C@H]([C@H](C)C[C@@H]2CC[C@@H](O)[C@H](OC)C2)CC(=O)[C@H](C)/C=C(\C)[C@@H](O)[C@@H](OC)C(=O)[C@H](C)C[C@H](C)/C=C/C=C/C=C/1C [Rapamycin] (10 µM)
inactive: MAPK1 = 0 | MAPK4 = 0 | MAPKAPK2 = 0 | MKNK1 = 0 | NTRK2 = 0 | NTRK3 = 0 | PAK4 = 0 | PBK 0 | PDGFRB 0 | PDK1 = 0

CC(C)(C)c1ccc(S(=O)(=O)Nc2ccc(-n3ccnc3)cc2)cc1 (10 µM)
inactive: MAPK1 = 0 | MAPK4 = 0 | MAPKAPK2 = 0 | MKNK1 = 0 | NTRK2 = 0 | NTRK3 = 0 | PAK4 = 0 | PBK 0 | PDGFRB 0 | PDK1 = 0

COc1ccc(C(=O)Nc2sc3c(c2C(N)=O)CCCC3)cc1OC (10 µM)
inactive: MAPK1 = 0 | MAPK4 = 0 | MAPKAPK2 = 0 | MKNK1 = 0 | NTRK2 = 0 | NTRK3 = 0 | PAK4 = 0 | PBK 0 | PDGFRB 0 | PDK1 = 0

O=[N+]([O-])c1cc(C(F)(F)F)cc([N+](=O)[O-])c1NNC(=S)Nc1ccc(F)cc1 (10 µM)
inactive: MAPK1 = 0 | MAPK4 = 0 | MAPKAPK2 = 0 | MKNK1 = 0 | NTRK2 = 0 | NTRK3 = 0 | PAK4 = 0 | PBK 0 | PDGFRB 0 | PDK1 = 0

CN1CCN(c2ccc(Nc3ncc4nc(Nc5ccccc5)n([C@@H]5CCN(S(=O)(=O)C6CC6)C5)c4n3)cc2)CC1 (2.5 µM)
inactive: MAPK1 = 0 | MAPK4 = 0 | MAPKAPK2 = 0 | MKNK1 = 0 | NTRK2 = 0 | NTRK3 = 0 | PAK4 = 0 | PBK 0 | PDGFRB 0 | PDK1 = 0

CC1=C2C(=O)O[C@@H](c3ccoc3)[C@]2(C)CCC1 [Fraxinellone] (10 µM)
inactive: MAPK1 = 0 | MAPK4 = 0 | MAPKAPK2 = 0 | MKNK1 = 0 | NTRK2 = 0 | NTRK3 = 0 | PAK4 = 0 | PBK 0 | PDGFRB 0 | PDK1 = 0

CCOc1cc(C(=O)N2CCC(N3CCN(C)CC3)CC2)ccc1Nc1ncc2c(n1)N(C1CCCC1)c1ccccc1C(=O)N2C (10 µM)
inactive: MAPK1 = 0 | MAPK4 = 0 | MAPKAPK2 = 0 | MKNK1 = 0 | NTRK2 = 0 | NTRK3 = 0 | PAK4 = 0 | PBK 0 | PDGFRB 0 | PDK1 = 0

O=C(O)c1cc(O)ccc1O [2,5-Dihydroxybenzoic acid] (10 µM)
inactive: MAPK1 = 0 | MAPK4 = 0 | MAPKAPK2 = 0 | MKNK1 = 0 | NTRK2 = 0 | NTRK3 = 0 | PAK4 = 0 | PBK 0 | PDGFRB 0 | PDK1 = 0

In the list so far, two have a nitro group on carbon.
Cc1cc(Nc2cc(Cl)nc(Oc3ccc([N+](=O)[O-])cc3)n2)n[nH]1 [Autophinib] (2.5 µM)
inactive: MAPK1 = 0 | MAPK4 = 0 | MAPKAPK2 = 0 | MKNK1 = 0 | NTRK2 = 0 | NTRK3 = 0 | PAK4 = 0 | PBK 0 | PDGFRB 0 | PDK1 = 0

O=[N+]([O-])c1cc(C(F)(F)F)cc([N+](=O)[O-])c1NNC(=S)Nc1ccc(F)cc1 (10 µM)
inactive: MAPK1 = 0 | MAPK4 = 0 | MAPKAPK2 = 0 | MKNK1 = 0 | NTRK2 = 0 | NTRK3 = 0 | PAK4 = 0 | PBK 0 | PDGFRB 0 | PDK1 = 0

Following part:

Nc1ncc(-c2cccc(N3CCNCC3)c2)cc1C(=O)Nc1ccncc1 [PKC-iota inhibitor 1] (10 µM)
inactive: MAPK1 = 0 | MAPK4 = 0 | MAPKAPK2 = 0 | MKNK1 = 0 | NTRK2 = 0 | NTRK3 = 0 | PAK4 = 0 | PBK 0 | PDGFRB 0 | PDK1 = 0

COc1ccc2c(c1O)OC(C)(C)c1c-2ccc2c1C(=O)N(c1ccc(C(=O)c3ccccc3)cc1)C2=O [Ampkinone] (10 µM)
inactive: MAPK1 = 0 | MAPK4 = 0 | MAPKAPK2 = 0 | MKNK1 = 0 | NTRK2 = 0 | NTRK3 = 0 | PAK4 = 0 | PBK 0 | PDGFRB 0 | PDK1 = 0
